# Reference: PubChem BioAssay AID330 (DTP/NCI, 2004)
# The list does not hold the whole screen: it gathers tests that were run many times, whatever their T/C, doses with no T/C, and many T/C values between a quarter and a half above the control. Further doses and runs are listed elsewhere. T/C gives the treated animals as a percentage of the vehicle group. Some entries give survivors of the animals treated and no T/C: the source files T/C as zero there, which appears to mark a toxic dose or a test without result, not a measured value. Some survivor counts are full or nearly so, which does not show that the dose was tolerated: the source hardly ever lists a survival T/C far under the control, and the zero likely stands for such cases as well. Counts of survivors are from the toxicity check (mostly the fifth day) where no day follows; animals may have died later. Schedule codes are those of the source, taken here to give the interval after Q, in days (D) or hours (H), and the number of doses after X. Some entries hold several experiments; their values stand side by side, smallest first. Brackets with × stand for listed records that agree. For survival time, the PubChem record calls one and a half times the control and up active, and a quarter to a half above the control has no call in these data; cut-offs in other NCI protocols can differ. Some T/C values are followed by the survivors on the day toxicity was checked, most often the fifth; without a count, all were alive then.
# Test system: P388 leukemia ip, CD2F1 mice, survival T/C
# Assay: NCI In Vivo Anticancer Drug Screen. Data for tumor model P388 Leukemia (intraperitoneal) in CD2F1 (CDF1) mice
# Conditions: T/C endpoint: median survival time, higher T/C = longer survival
# [1] = dose: 100.0 mg/kg/injection, schedule: Q04DX003 (ip), vehicle: saline
# [2] = dose: 200.0 mg/kg/injection, schedule: Q04DX003 (ip), vehicle: saline
# [3] = dose: 400.0 mg/kg/injection, schedule: Q04DX003 (ip), vehicle: saline
# [4] = dose: 240.0 mg/kg/injection, schedule: Q01DX005 (ip), vehicle: saline with Tween-80
# [5] = dose: 100.0 mg/kg/injection, schedule: Q01DX009 (ip), vehicle: saline with Tween-80
# [6] = dose: 400.0 mg/kg/injection, schedule: Q01DX009 (ip), vehicle: saline with Tween-80
# [7] = dose: 60.0 mg/kg/injection, schedule: Q01DX005 (ip), vehicle: saline with Tween-80
# [8] = dose: 120.0 mg/kg/injection, schedule: Q01DX005 (ip), vehicle: saline with Tween-80
# [9] = dose: 200.0 mg/kg/injection, schedule: Q01DX005 (ip), vehicle: saline
# [10] = dose: 0.09 mg/kg/injection, schedule: Q01DX005 (ip), vehicle: Klucel (hydroxypropylcellulose) (HPC)
# [11] = dose: 0.19 mg/kg/injection, schedule: Q01DX005 (ip), vehicle: Klucel (hydroxypropylcellulose) (HPC)
# [12] = dose: 0.39 mg/kg/injection, schedule: Q01DX005 (ip), vehicle: Klucel (hydroxypropylcellulose) (HPC)
# [13] = dose: 0.79 mg/kg/injection, schedule: Q01DX005 (ip), vehicle: Klucel (hydroxypropylcellulose) (HPC)
smiles,measurement,setting,value
CCCN=C(N)c1ccc(N=C(N)c2ccc(N=C(N)c3ccc(C(N)=NCCC)cc3)cc2)cc1,T/C,"dose: 0.63 mg/kg/injection, schedule: Q01DX009 (ip), vehicle: saline",140 % of control
same,T/C,"dose: 5.0 mg/kg/injection, schedule: Q01DX009 (ip), vehicle: saline with Tween-80",127 % of control
same,T/C,"dose: 6.6 mg/kg/injection, schedule: Q01DX009 (ip), vehicle: saline",136 % of control
same,T/C,"dose: 10.0 mg/kg/injection, schedule: Q01DX009 (ip), vehicle: saline with Tween-80",136 % of control
same,survivor count,[1],0 of 6
same,survivor count,[2],0 of 6
same,survivor count,[3],0 of 6
N#Cc1ccc(NC(=O)Nc2nccs2)cc1,T/C,"dose: 25.0 mg/kg/injection, schedule: Q01DX009 (ip), vehicle: distilled water + Tween-80",127 % of control (2×)
same,T/C,"dose: 50.0 mg/kg/injection, schedule: Q01DX009 (ip), vehicle: distilled water + Tween-80","127, 128, 132 % of control"
same,survivor count,"dose: 200.0 mg/kg/injection, schedule: Q01DX009 (ip), vehicle: distilled water + Tween-80",0 of 6 and 3 of 6
same,survivor count,"dose: 400.0 mg/kg/injection, schedule: Q01DX009 (ip), vehicle: distilled water + Tween-80",0 of 6
CCN1C(=O)/C(=C/C=C/N(C)c2ccccc2)SC1=S,survivor count,"dose: 200.0 mg/kg/injection, schedule: Q01DX009 (ip), vehicle: saline",6 of 6
O=C(Cn1cnc2ccc([N+](=O)[O-])cc21)N1CCN(c2ccccc2)CC1,survivor count,[4],6 of 6
COC(=O)C1=COC(OC2OC(CO)C(O)C(O)C2O)C2C(C)C(O)C(OC(=O)/C=C/c3ccc(OC)cc3)C12 (centres undefined),survivor count,"dose: 18.75 mg/kg/injection, schedule: Q01DX005 (ip), vehicle: Klucel (hydroxypropylcellulose) (HPC)",6 of 6
COc1cc2c(c(OC)c1OC)C(=O)CCC2,survivor count,"dose: 200.0 mg/kg/injection, schedule: Q04DX003 (ip), vehicle: Klucel (hydroxypropylcellulose) (HPC)",6 of 6
CN1CCC(=C(C#N)C#N)CC1,survivor count,[5],3 of 6
Nc1ccc(Cl)cc1N,survivor count,"dose: 400.0 mg/kg/injection, schedule: Q01DX009 (ip), vehicle: other",0 of 6
same,survivor count,[6],0 of 6 and 5 of 6
c1ccc2c(c1)[nH]c1nc3ccncc3nc12,survivor count,"dose: 200.0 mg/kg/injection, schedule: Q01DX009 (ip), vehicle: saline with Tween-80",6 of 6
CC(C)(C(=O)O)C(Nc1ncnc2c1ncn2C1OC(CO)C(O)C1O)C(=O)O (centres undefined),survivor count,[3],6 of 6
CCCCCCC(O)Cc1cc(-c2ccccc2)nc(=O)[nH]1 (centres undefined),survivor count,"dose: 30.0 mg/kg/injection, schedule: Q01DX005 (ip), vehicle: saline with Tween-80",6 of 6
same,survivor count,[7],6 of 6
same,survivor count,[8],6 of 6
Cc1cc[n+](C2=C(Nc3cccc(C(F)(F)F)c3)C(=O)c3ccccc3C2=O)cc1,survivor count,[7],0 of 6
same,survivor count,[8],0 of 6
same,survivor count,[4],0 of 6
COC1=CC(=O)C(c2cc(OC(C)=O)c(OC)cc2OC(C)=O)=CC1=O,survivor count,"dose: 50.0 mg/kg/injection, schedule: Q01DX005 (ip), vehicle: saline + Tween-80 + alcohol",1 of 5
same,survivor count,"dose: 100.0 mg/kg/injection, schedule: Q01DX005 (ip), vehicle: saline + Tween-80 + alcohol",0 of 5
same,survivor count,"dose: 200.0 mg/kg/injection, schedule: Q01DX005 (ip), vehicle: saline + Tween-80 + alcohol",0 of 5
C[S+](C)CCCNC(=O)c1csc(-c2csc(N)n2)n1,survivor count,"dose: 50.0 mg/kg/injection, schedule: Q01DX005 (ip), vehicle: water",0 of 6
same,survivor count,"dose: 100.0 mg/kg/injection, schedule: Q01DX005 (ip), vehicle: water",0 of 6
same,survivor count,"dose: 200.0 mg/kg/injection, schedule: Q01DX005 (ip), vehicle: water",0 of 6
CCN(CC)CCOC(=O)Nc1c(Cl)cccc1Cl,survivor count,"dose: 120.0 mg/kg/injection, schedule: Q01DX005 (ip), vehicle: Klucel (hydroxypropylcellulose) (HPC)",1 of 6
same,survivor count,"dose: 240.0 mg/kg/injection, schedule: Q01DX005 (ip), vehicle: Klucel (hydroxypropylcellulose) (HPC)",0 of 6
Nc1nc(N)c2cc(Sc3cccc(C(F)(F)F)c3)ccc2n1,T/C,"dose: 50.0 mg/kg/injection, schedule: Q01DX009 (ip), vehicle: saline with Tween-80",136 % of control
same,survivor count,[6],3 of 6
O=c1c2ccccc2n(-c2ccccc2)c2ccc(Cl)cc12,survivor count,"dose: 200.0 mg/kg/injection, schedule: Q01DX005 (ip), vehicle: saline with Tween-80",5 of 5
CC1CCC=CC(=O)C1 (centres undefined),survivor count,"dose: 400.0 mg/kg/injection, schedule: Q04DX003 (ip), vehicle: Klucel (hydroxypropylcellulose) (HPC)",0 of 6
O=NN(CCCl)C(=O)Oc1ccc(F)cc1,T/C,"dose: 12.5 mg/kg/injection, schedule: Q01DX001 (ip), vehicle: saline with Tween-80",125 % of control
same,T/C,"dose: 25.0 mg/kg/injection, schedule: Q01DX001 (ip), vehicle: saline with Tween-80",125 % of control
COc1cc(NCCN(C(C)C)C(C)C)c2ncccc2c1,survivor count,"dose: 100.0 mg/kg/injection, schedule: Q01DX005 (ip), vehicle: saline",0 of 5
same,survivor count,[9],0 of 5
Cc1c2cc[n+](CCN3CCCCC3)cc2c(C)c2c1[nH]c1ccc(O)cc12,T/C,"dose: 6.25 mg/kg/injection, schedule: Q04DX003 (ip), vehicle: suspension in saline",140 % of control
same,T/C,"dose: 12.5 mg/kg/injection, schedule: Q04DX003 (ip), vehicle: saline",145 % of control
same,T/C,"dose: 50.0 mg/kg/injection, schedule: Q04DX003 (ip), vehicle: saline",143 % of control
same,T/C,[1],143 % of control
same,survivor count,[2],0 of 6
C[CH2][Sn]([Cl])([CH2]C)[c]1cc[c]([Sn]([Cl])([CH2]C)[CH2]C)cc1,T/C,"dose: 0.04 mg/kg/injection, schedule: Q01DX005 (ip), vehicle: Klucel (hydroxypropylcellulose) (HPC)",149 % of control
same,T/C,[10],111 [5 of 6 alive] and 150 % of control [5 of 6 alive]
same,survivor count,[10],0 of 6 and 2 of 6
same,T/C,[11],114 and 139 % of control
same,survivor count,[11],0 of 6 (2×)
same,T/C,[12],130 % of control
same,survivor count,[12],0 of 6 (2×) and 4 of 6
same,T/C,[13],125 % of control
same,survivor count,[13],0 of 6 (2×)
same,survivor count,"dose: 1.56 mg/kg/injection, schedule: Q01DX005 (ip), vehicle: Klucel (hydroxypropylcellulose) (HPC)",1 of 6
same,survivor count,"dose: 6.25 mg/kg/injection, schedule: Q01DX005 (ip), vehicle: Klucel (hydroxypropylcellulose) (HPC)",0 of 6
same,survivor count,"dose: 12.5 mg/kg/injection, schedule: Q01DX005 (ip), vehicle: Klucel (hydroxypropylcellulose) (HPC)",0 of 6
same,survivor count,"dose: 25.0 mg/kg/injection, schedule: Q01DX005 (ip), vehicle: Klucel (hydroxypropylcellulose) (HPC)",0 of 6
same,survivor count,"dose: 50.0 mg/kg/injection, schedule: Q01DX005 (ip), vehicle: Klucel (hydroxypropylcellulose) (HPC)",0 of 6
same,survivor count,"dose: 100.0 mg/kg/injection, schedule: Q01DX005 (ip), vehicle: Klucel (hydroxypropylcellulose) (HPC)",0 of 6
same,survivor count,"dose: 200.0 mg/kg/injection, schedule: Q01DX005 (ip), vehicle: Klucel (hydroxypropylcellulose) (HPC)",0 of 6
CC1CNCC(C)N1Cc1ccccc1 (centres undefined),survivor count,[9],0 of 6
O=NN1CCN(N=O)CC1,survivor count,[5],0 of 6
same,survivor count,"dose: 200.0 mg/kg/injection, schedule: Q04DX003 (ip), vehicle: saline with Tween-80",0 of 6
O=C1CS/C(=N/N=C/c2nc3ccccc3c(=O)n2-c2ccc(Cl)cc2)N1c1ccccc1,survivor count,"dose: 50.0 mg/kg/injection, schedule: Q01DX005 (ip), vehicle: saline with Tween-80",6 of 6
same,survivor count,"dose: 100.0 mg/kg/injection, schedule: Q01DX005 (ip), vehicle: saline with Tween-80",5 of 6
COc1ccccc1N=NC(C#N)C(N)=O (centres undefined),survivor count,[5],6 of 6
